{"sequences": {"note": "By UniProt entry, the sequences of proteins in these tests, tags left out. Where a name states a change or a piece, a line headed by the entry shows the natural chain unless it says otherwise.", "UniProt Q96F46": "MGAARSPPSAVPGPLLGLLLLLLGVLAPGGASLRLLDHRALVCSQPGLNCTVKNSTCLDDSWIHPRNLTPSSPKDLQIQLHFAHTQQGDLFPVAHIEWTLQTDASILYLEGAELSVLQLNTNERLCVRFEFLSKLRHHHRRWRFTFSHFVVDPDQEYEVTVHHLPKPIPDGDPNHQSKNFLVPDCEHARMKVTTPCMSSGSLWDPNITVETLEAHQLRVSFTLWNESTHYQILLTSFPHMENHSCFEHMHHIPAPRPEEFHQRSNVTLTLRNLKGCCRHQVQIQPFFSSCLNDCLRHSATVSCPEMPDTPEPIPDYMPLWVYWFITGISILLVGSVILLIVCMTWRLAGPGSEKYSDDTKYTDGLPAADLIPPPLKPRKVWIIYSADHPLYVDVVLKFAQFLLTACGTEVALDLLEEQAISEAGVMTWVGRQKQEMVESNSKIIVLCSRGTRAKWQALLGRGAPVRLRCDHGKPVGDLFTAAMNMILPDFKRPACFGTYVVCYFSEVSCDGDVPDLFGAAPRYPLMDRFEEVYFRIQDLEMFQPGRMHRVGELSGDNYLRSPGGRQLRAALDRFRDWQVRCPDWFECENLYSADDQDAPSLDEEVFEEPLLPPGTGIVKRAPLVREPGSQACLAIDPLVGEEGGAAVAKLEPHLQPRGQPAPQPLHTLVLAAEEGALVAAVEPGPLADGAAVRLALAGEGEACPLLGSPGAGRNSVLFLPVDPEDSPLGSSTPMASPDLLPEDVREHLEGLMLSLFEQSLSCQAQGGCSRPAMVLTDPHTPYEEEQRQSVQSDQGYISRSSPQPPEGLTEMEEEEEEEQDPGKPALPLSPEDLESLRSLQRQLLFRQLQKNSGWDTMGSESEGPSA"}, "source": "patent WO2009082624A2", "target": "T1, human IL-17A (IL-17AA homodimer), recombinant (human) (UniProt Q16552)", "T1 sequence": "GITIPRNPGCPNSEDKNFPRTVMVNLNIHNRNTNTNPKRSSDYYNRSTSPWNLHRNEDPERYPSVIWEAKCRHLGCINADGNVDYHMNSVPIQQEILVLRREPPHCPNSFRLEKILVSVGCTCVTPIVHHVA", "assay": "SPR (Biacore T-100), IL-17A immobilised", "note": "These are yes or no findings as the source states them, for the method shown. Some binding calls cover weakened binding; strength is not graded here."}
{"substance": "human IL-17RA-Fc soluble receptor (ZymoGenetics) (from UniProt Q96F46 33-320) (Fc fusion)", "values": [{"measurement": "binding", "result": "binds"}]}
